This test can be described thus: IkB Signaling. The note with it: ABC-DLBCL IkBa-CBG/CBR dual luciferase ratio (green luciferase fused to IkBa over red control in OCI-Ly3 lymphoma cells), 4 h. In short, it runs like this:
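Curves were fitted separately to fusion (green), unfused (red) and ratio luminescence, then classed by r2, magnitude and activity. Cells: OCI-Ly3, 4 h compound plus doxycycline at 37C; 10 uM MG-132 defined full response.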

Where [1] appears, read: measured here: control luc red channel unless noted.
The mark [2] stands for this setting: measured here: IkB-luc green channel.
Where [3] appears, read: measured here: control luc red channel.

The list shows a part of the results. These are further read-outs of the screen, such as a control signal, another cell line or another target. No call is given for them. The list favours compounds with an active or inconclusive main result. The note in brackets gives the kind of curve behind each potency; many fits are weak.

The term AC50 denotes the concentration giving half of the maximal activity seen. Take `COc1ccc(-c2c(C)nn3c(-c4ccccc4)cc(-c4ccccc4)nc23)cc1OC`: under setting [1], the AC50 is 1.26 µM [rising, full curve].

Turning to `COc1ccc(CCN2C(=O)c3[nH]nc(-c4ccccc4O)c3C2c2ccc(O)c(OC)c2)cc1` (stereo not given), the concentration at half-maximal activity (AC50) under setting [1] is 25.1 µM [falling, partial curve].

For the compound `COC(=O)c1ccc(NC(=O)CCNS(=O)(=O)c2cccc3nsnc23)cc1`, the AC50 under setting [1] is 39.8 µM [falling, single point].

As to `O=c1cc(-c2c(F)c(F)c(F)c(F)c2F)oc2c(F)c(F)c(F)c(F)c12`, under setting [1], the AC50 was 3.16 µM [falling, full curve].

As for `CCC(CC)C(=O)Nc1nnc2n1CCS2`, the AC50 under setting [1] was 0.316 µM [rising, full curve, poor fit].

For the compound `O=C(Nc1ccccc1)N1CC=C(c2ccc(F)cc2)CC1`, under setting [1], the AC50 is 3.98 µM [falling, partial curve].

Regarding `Cc1ccc(S(=O)(=O)CCC(=O)c2ccc(O)cc2O)cc1`, under setting [1], the half-maximal activity concentration (AC50) was 31.6 µM [falling, partial curve].

Regarding `O=C(CCC1CCCCC1)N1CCN(Cc2ccc3c(c2)OCO3)CC1`, the AC50 under setting [1] is 15.8 µM [falling, partial curve].

Consider `CN(C)c1ccc(CNC(=O)c2ccc(NC(=O)c3nsc4ccccc34)cc2)cc1`, for which the concentration at half-maximal activity (AC50) under setting [1] was 0.158 µM [falling, full curve].

For `Cc1c(C(=O)NCc2ccccc2Cl)cccc1-n1cnc2cccnc21`, the AC50 under setting [1] was 20 µM [falling, partial curve].

Turning to `Cc1cccc(CNC(=O)c2ccc3nc(-c4ccccc4)c(-c4ccccc4)nc3c2)c1`, the AC50 under setting [1] was 1 µM [falling, partial curve, poor fit].

In the case of `CCC1(c2ccccc2)C(=O)NCNC1=O`, the AC50 under setting [1] was 15.8 µM [rising, partial curve, poor fit] [measured here: IkB-luc green channel].

Take `Cc1ccc(CCNc2ncnc3onc(C)c23)cc1`: the AC50 under setting [1] was 2.51 µM [falling, partial curve].

With `CCC(=O)N1c2ccccc2NC2=C(C(=O)CCC2)C1c1cccnc1` (stereo not given), the AC50 under setting [1] is 10 µM [falling, partial curve].

Consider `Cc1ccc2occ(CC(=O)N(Cc3ccc(N(C)C)cc3)C3CCS(=O)(=O)C3)c2c1` (stereo not given), for which the AC50 under setting [1] was 39.8 µM [falling, single point].

Regarding `CCOc1ccc(CNC(=O)CCC(=O)N2CCSc3ccccc32)cc1`, the AC50 under setting [1] was 20 µM [falling, partial curve].

`CC1=Nc2cc(C(=O)NC3CCCC3)ccc2Sc2ccc(Br)cc21`: the AC50 is 3.98 µM [rising, single point] under setting [2] and 39.8 µM [falling, single point] under setting [3].

Turning to `COCCCNC(=O)C1CCCN(S(=O)(=O)c2ccc3c(c2)oc(=O)n3C)C1` (stereo not given), the AC50 under setting [1] is 12.6 µM [falling, single point].

Take `CCOCCCn1c(SCC(=O)NCCCOC)nc2c(sc3ccccc32)c1=O`: the AC50 under setting [1] was 15.8 µM [rising, partial curve, poor fit].

For the compound `CCOCCCNC(=O)c1c[nH]c2ccc(S(=O)(=O)Nc3cccc(Cl)c3C)cc2c1=O`, under setting [1], the AC50 is 15.8 µM [falling, partial curve].

Turning to `Cn1c(=O)oc2cc(S(=O)(=O)N3CCCC(C(=O)N4CCN(c5ccccc5F)CC4)C3)ccc21` (stereo not given), the AC50 under setting [1] is 15.8 µM [falling, partial curve].

As to `Cc1ccc(Cn2c(=O)n(CC3CCC(C(=O)N4CCOCC4)CC3)c(=O)c3sccc32)cc1` (stereo not given), the AC50 under setting [1] was 5.01 µM [rising, full curve, poor fit].

In the case of `COC(=O)c1ccccc1NC(=O)C1CCN(S(=O)(=O)c2cc(C)ccc2OC)CC1`, the half-maximal activity concentration (AC50) under setting [1] is 25.1 µM [falling, single point].

For `COC(=O)c1cc2oc3ccccc3c2n1Cc1c(F)cccc1Cl`, the AC50 under setting [1] is 0.2 µM [falling, partial curve, poor fit].

For `COc1ccc2nc(N3CCN(C(=O)C4CC4)CC3)sc2c1`, under setting [1], the AC50 was 2 µM [rising, partial curve].

In the case of `COc1ccc(NC(=O)N2CCc3c([nH]c4ccc(OC)cc34)C2c2ccc(OC)cc2)cc1` (stereo not given), the AC50 under setting [1] was 5.01 µM [falling, partial curve].

With `CCc1cccc(NC(=O)CN2CCCN(Cc3cccc(C)c3)S2(=O)=O)c1`, the AC50 under setting [1] was 10 µM [falling, partial curve].

With `COc1ccc(N2CCN(C(=O)c3ccc4nc(N5CCC(C)CC5)sc4c3)CC2)cc1`, the half-maximal activity concentration (AC50) under setting [1] is 12.6 µM [falling, partial curve].

Consider `CC(C)N(Cc1nc(-c2ccc(Cl)cc2)no1)C(=O)CCCN1C(=O)c2ccccc2C1=O`, for which the AC50 under setting [1] was 6.31 µM [falling, partial curve].

On to `CC(NC(=O)c1sc2ncccc2c1-n1cccc1)c1ccccc1` (stereo not given), for which the AC50 under setting [1] is 10 µM [falling, partial curve].

Regarding `CCSc1nnc(NC(=O)c2cc(C)on2)s1`, the AC50 under setting [1] was 10 µM [falling, partial curve].

In the case of `Cc1ccc(CCNC(=O)C2CCCN(C(=O)c3cc4sccc4n3C)C2)cc1` (stereo not given), the concentration at half-maximal activity (AC50) under setting [1] is 25.1 µM [falling, single point].

For `COC(=O)c1cc(NC(=O)Cn2nc(C)n3cccc3c2=O)cc(C(=O)OC)c1`, the concentration at half-maximal activity (AC50) under setting [1] was 2 µM [falling, full curve].

In the case of `CC(C)c1cc(C(=O)Nc2cc(Cl)ccc2O)no1`, the AC50 under setting [1] is 12.6 µM [falling, partial curve].

For the compound `CCOC(=O)C1=C(CS(=O)(=O)c2ccc(Br)cc2)NC(=O)NC1c1ccccc1` (stereo not given), under setting [1], the AC50 is 20 µM [falling, partial curve].

As to `Cc1ccccc1CNC(=O)c1ccc(-c2nc(CS(=O)(=O)c3ccccc3)c(C)o2)cc1`, the AC50 under setting [1] is 3.98 µM [falling, full curve].

As to `COc1ccc(C)cc1NC(=O)CN(c1cc(C(F)(F)F)ccc1Cl)S(C)(=O)=O`, under setting [1], the AC50 is 20 µM [falling, single point].

With `CC(Sc1nnc(-c2ccc(O)cc2)o1)C(=O)Nc1cccc2ccccc12` (stereo not given), under setting [1], the AC50 was 1 µM [falling, full curve].

Turning to `O=C(NCc1ccco1)c1cccs1`, the AC50 under setting [1] is 158 nM [rising, full curve, poor fit] [measured here: IkB-luc green channel].

On to `CCOC(=O)c1sc2ccccc2c1S(=O)(=O)Nc1cccc(C(F)(F)F)c1`, for which the AC50 under setting [1] was 15.8 µM [falling, partial curve].

Take `Cc1cccc(C(=O)NCCc2sc(-c3ccccc3)nc2C)c1`: the AC50 under setting [1] is 39.8 µM [falling, single point].

For `CCOC(=O)C1CCCN(c2nc3ccccc3nc2C(C#N)C(=O)OCC)C1` (stereo not given), the AC50 under setting [1] was 39.8 µM [falling, single point].

Consider `Cc1coc2c1c(C)cc1oc(=O)cc(C)c12`, for which the AC50 under setting [1] is 1.58 µM [rising, full curve].

On to `Cc1oc(-c2cccc(Cl)c2)nc1CN1CCCC(C(=O)NCc2ccc(F)cc2)C1` (stereo not given), for which the AC50 under setting [1] is 20 µM [falling, partial curve].

Take `CCCCN(C)C(=O)C(Cc1ccccc1)NS(=O)(=O)c1ccc2c(c1)c(=O)n(C)c(=O)n2C` (stereo not given): the AC50 under setting [1] is 25.1 µM [falling, single point].

On to `Cc1ccc(CSCC(=O)N2CCN(c3ccc(F)cc3)CC2)cc1`, for which the AC50 under setting [1] is 15.8 µM [falling, partial curve].

As to `Cc1ccc2c(=O)cc(CSc3ccccc3)[nH]c2c1C`, the concentration at half-maximal activity (AC50) under setting [1] is 20 µM [falling, single point].

Turning to `CC(=O)c1cccc(S(=O)(=O)NCCc2csc3nc(-c4ccc(F)cc4)nn23)c1`, under setting [1], the AC50 was 25.1 µM [falling, single point].

As for `CC(=O)Oc1c(S(=O)(=O)c2ccc(C)cc2)c(C)nn1C(C)(C)C`, under setting [1], the AC50 was 12.6 µM [falling, partial curve].

On to `Cc1cccc(N(CC(=O)Nc2ccc(Br)cc2)S(C)(=O)=O)c1C`, for which, under setting [1], the AC50 was 39.8 µM [falling, single point].

As for `COc1ccc(C(=O)NCc2ccc3c(c2)CCN3C(=O)c2ccncc2)cc1`, the AC50 under setting [1] was 0.01 µM [rising, full curve, poor fit].

Take `Fc1ccc(-c2nnc(NC3=NCCCCC3)o2)cc1`: the AC50 under setting [1] is 0.631 µM [falling, full curve].

As for `CN1c2ccccc2-c2nc(SCC(=O)Nc3ccccc3C(F)(F)F)ncc2S1(=O)=O`, under setting [1], the AC50 was 39.8 µM [falling, single point].

For `CCCCOC(=O)n1c(=O)oc2cc(S(=O)(=O)N3CCCCC3)ccc21`, under setting [1], the AC50 was 20 µM [falling, partial curve].

Turning to `CCN(Cc1ccccc1)C(=O)Cn1c(=O)n(Cc2ccccc2)c(=O)c2c1c1cc(OC)ccc1n2C`, the concentration at half-maximal activity (AC50) under setting [1] was 3.16 µM [falling, partial curve].

On to `O=C(NCC(c1cccnc1)N1CCN(Cc2ccccc2)CC1)C(=O)Nc1ccc(Cl)cc1` (stereo not given), for which the AC50 under setting [1] was 39.8 µM [falling, single point].

Take `CCC(Sc1nnc(-c2ccc(OC)cc2)c(-c2ccc(OC)cc2)n1)C(=O)NC1CCCCC1` (stereo not given): under setting [1], the AC50 was 10 µM [falling, partial curve, poor fit].

As to `Cc1ccc(-n2c3nc(=O)n(C)c(=O)c-3cc3c(Cl)cccc32)c(C)c1`, the AC50 under setting [1] is 5.01 µM [falling, partial curve].

`CC1CCCN(S(=O)(=O)c2ccc(NC(=O)c3nc(SC(C)C)ncc3Cl)cc2)C1` (stereo not given): the AC50 under setting [1] was 39.8 µM [falling, single point].

With `COc1ccccc1/C=C/c1nc(C#N)c(N2CCCCCC2)o1`, the AC50 under setting [1] was 39.8 µM [falling, single point].

Turning to `COc1ccc(N2CC(NC(=O)c3ccc(S(=O)(=O)N4CCCC4)cc3)CC2=O)cc1` (stereo not given), the AC50 under setting [1] is 2 µM [rising, partial curve].

As to `Cn1nccc1C(=O)NCc1ccc2c(c1)CCN2C(=O)c1ccc(F)cc1`, under setting [1], the AC50 is 10 µM [falling, partial curve].

Take `CCOC(=O)C1=C(N)n2c(s/c(=C\c3cccs3)c2=O)=C(C(=O)OCC)C1c1cccs1` (stereo not given): the AC50 under setting [2] is 0.501 µM [rising, full curve, poor fit] and the AC50 under setting [3] was 0.398 µM [rising, full curve].

The record behind these values is PubChem BioAssay AID445 (National Center for Advancing Translational Sciences (NCATS), 2006).
